The test is described as follows: qHTS Assay for Lipid Storage Modulators in Drosophila S3 Cells.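 As to cell number change: cells counted by Cell Tracker Red CMTPX staining in the red channel.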 Conditions: BODIPY lipid droplet fluorescence, 18-24 h; for cell number change: measured here: cell count max response, cells fed with added oleic acid. A digest of the protocol: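 Laser-scanning cytometry quantifies lipid droplet accumulation (500–530 nm total intensity; droplet/cell object ratio) in oleic acid-fed (400 uM added) Drosophila S3 cells treated with a concentration series. 20 uM Triacsin C defined 100% inhibition.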
For orientation: qHTS replaces the single test concentration by a dilution series.

Where [1] appears, read: measured here: lipid fluorescence (Fed channel) AC50, cells fed with added oleic acid.
Where [2] appears, read: measured here: cell number channel AC50, cells fed with added oleic acid.

This is one part of the list. These are further read-outs of the screen, such as a control signal, another cell line or another target. No call is given for them. Most of these compounds were active or inconclusive in the main read-out, so they are no random draw. Words in brackets tell the shape of the fitted curve; partial curves, single points and poor fits give uncertain potencies.

One may read the AC50 as the midpoint of the concentration-response curve, whichever way the signal moves. Lower therefore signals activity at low concentration. Consider `CCOC(=O)c1c(N=CN(C)C)c(C#N)n2c1CCC2`, for which the cell number change was determined as 7.54%. Besides, the AC50 under setting [1] is 18.4 µM [rising, single point].

Regarding `Cc1c(NC(=O)C2CCCCC2)cc(C(=O)N2CCOCC2)cc1[N+](=O)[O-]`, the cell number change was 55.1%. Moreover, the concentration at half-maximal activity (AC50) under setting [2] was 16.4 µM [rising, single point].

`CCCn1c(SCC(=O)NCCc2ccccc2)nnc1-c1ccccn1`: under setting [1], the AC50 is 0.58 µM [rising, single point].

As for `O=C(NCc1ccc(F)cc1)c1cc2ccccn2n1`, the cell number change worked out at 2.92%.

With `O=C(OCC(=O)N1CCN(C(=O)c2ccco2)CC1)c1ccccc1`, the cell number change was -0.95%. For the same compound, the AC50 under setting [2] is 0.58 µM [rising, partial curve, poor fit].

As for `Cc1cccc(OCC(=O)N(Cc2ccccc2)c2c(N)n(Cc3ccccc3)c(=O)[nH]c2=O)c1`, the cell number change was -1.37%. Further, the AC50 under setting [1] was 32.6 µM [rising, single point].

Regarding `O=C(CCC(=O)c1cccs1)OCC(=O)c1ccccc1F`, the cell number change is -10.7%.

On to `CC(N=C1NS(=O)(=O)c2ccccc21)C(=O)NCc1ccncc1` (stereo not drawn), for which the cell number change is -3.5%.

In the case of `COC(=O)C1CCN(C(=O)c2cc3c(=O)n4cccc(C)c4nc3n2Cc2ccccc2)CC1`, the cell number change worked out at 3.3%. Further, the AC50 under setting [2] was 6.51 µM [falling, single point]. Also, the AC50 under setting [1] is 6.51 µM [falling, single point].

For `O=S(=O)([O-])CCC[n+]1c(SCCCS(=O)(=O)O)sc2ccc(Cl)cc21`, the cell number change came out at 79%. Further, the AC50 under setting [2] was 29.1 µM [rising, single point].

Turning to `CCCCC(=NCCc1c(C)[nH]c2ccc(OC)cc12)C1=C(O)CC(c2ccccc2)CC1=O` (stereo not drawn), the cell number change is 25.2%. The AC50 under setting [2] is 0.731 µM [rising, full curve].

On to `COc1ccc(Cc2nnc(SCC(=O)c3cccc([N+](=O)[O-])c3)n2C)cc1`, for which the cell number change was -29.1%.

Regarding `C=C(C)CSc1nc2ncc(Cl)cc2[nH]1`, the cell number change is 31%.

Consider `COc1ccc(-c2cn(-c3ccc(OC)cc3)c3[n+]2-c2ccccc2CC3)cc1`, for which the cell number change was -55.9%. For the same compound, the AC50 under setting [2] is 6.51 µM [falling, partial curve]. For the same compound, the AC50 under setting [1] was 4.11 µM [falling, full curve].

Regarding `CCOCC(=O)Nc1ncc(S(=O)(=O)c2ccc([N+](=O)[O-])cc2)s1`, the cell number change is 26.2%. The AC50 under setting [1] is 6.51 µM [rising, single point].

On to `COc1ccc(CCN=C(N)NS(=O)(=O)c2ccccc2)cc1OC`, for which the cell number change was -5.65%.

As to `O=C(Nc1nc2c(F)cc(F)cc2s1)c1ccco1`, the cell number change was determined as 6.05%. Also, the half-maximal activity concentration (AC50) under setting [1] is 29.1 µM [rising, single point].

For `O=C(Nc1cccc(O)c1)c1cc(S(=O)(=O)N2CCCC2)ccc1Cl`, the cell number change was -21.6%. The AC50 under setting [2] was 0.164 µM [falling, full curve, poor fit]. Also, the AC50 under setting [1] is 0.82 µM [falling, full curve].

Take `CCC(=O)NCCNc1ccc([N+](=O)[O-])cn1`: the cell number change is -17.2%. Besides, the AC50 under setting [2] was 2.31 µM [rising, partial curve]. Besides, under setting [1], the AC50 is 2.59 µM [rising, partial curve].

Turning to `Cc1cccc(C(=O)NC2CC3CCCC(C2)N3Cc2ccccc2)c1` (stereo not drawn), the cell number change was 11%. Also, the AC50 under setting [1] is 29.1 µM [rising, single point].

`CCOC(=O)c1c(/N=C/c2ccccc2O)sc2c1CCC2`: the cell number change was -45.5%. Also, the AC50 under setting [2] was 29.1 µM [falling, single point]. Also, the AC50 under setting [1] is 29.1 µM [falling, single point].

Take `O=S(=O)(Nc1cccc(-n2cnnn2)c1)c1cc(Br)ccc1Br`: under setting [1], the AC50 is 0.13 µM [falling, full curve, poor fit].

On to `COc1cc(CC(=O)OCC(=O)Nc2ccc(Cl)c(S(=O)(=O)N(C)C)c2)cc(OC)c1OC`, for which the cell number change was -24.8%. The AC50 under setting [2] was 2.59 µM [falling, full curve, poor fit]. For the same compound, the AC50 under setting [1] is 2.31 µM [falling, partial curve, poor fit].

Consider `O=C(CN1C(=O)C2CCCCC2C1=O)Nc1nc(-c2ccccn2)cs1` (stereo not drawn), for which the cell number change amounted to 48.5%. Further, the AC50 under setting [2] is 29.1 µM [rising, single point]. Also, the AC50 under setting [1] was 29.1 µM [rising, single point].

Turning to `Cc1ccc(Cn2ccc(O)c(Cc3ccccc3)c2=O)cc1`, the cell number change was -46.3%. The AC50 under setting [2] was 6.51 µM [falling, single point].

`O=C(COc1ncnc2cc([N+](=O)[O-])ccc12)NCc1ccc2c(c1)OCO2`: the cell number change is 32.4%. Further, the AC50 under setting [2] is 11.6 µM [rising, partial curve, poor fit].

Turning to `Cc1ccc(S(=O)(=O)N2CCC(C(=O)OCC(=O)NC3(C#N)CCCCC3)CC2)cc1C`, the cell number change turned out to be 7.05%.

Turning to `CCOc1ccc(-n2c(SCC(=O)NCc3ccco3)nc3c(c2=O)SCC3)cc1`, the cell number change was 11.6%. Moreover, the AC50 under setting [1] is 0.731 µM [rising, partial curve].

Take `O=C(O)c1ccc(NC(=S)NC(=O)c2cncc(Br)c2)cc1`: the AC50 under setting [1] was 29.1 µM [falling, single point].

`CCCN(CCC)c1cc(Cl)nc(N)n1`: the cell number change was 51%.

Regarding `COC(=O)NCC(c1ccc2c(c1)OCO2)N1CCN(c2ccccc2)CC1` (stereo not drawn), the cell number change was -1.19%.

Regarding `Cc1ccc(SCC(=O)NCCc2ccccc2)cc1`, the cell number change was 9.97%.

On to `CN1C(=O)c2ccc(S(=O)(=O)c3ccc(C(=O)O)cc3)cc2C1=O`, for which the cell number change is -61.3%. The AC50 under setting [2] was 29.1 µM [falling, single point]. For the same compound, under setting [1], the AC50 was 0.00651 µM [falling, full curve, poor fit].

On to `O=C(COc1ccc2ccc(=O)oc2c1)NCCCn1ccnc1`, for which the cell number change is 7.16%. Under setting [1], the AC50 was 2.91 µM [rising, single point].

Take `CC(=O)N1N=C(c2cccc(O)c2)CC1c1cccs1` (stereo not drawn): the cell number change was 10.9%. Besides, the AC50 under setting [1] was 18.4 µM [rising, single point].

Regarding `O=C(Nc1ccccc1Cl)N1CCn2c(nc3ccccc32)C1`, the cell number change was -9.16%. Further, the concentration at half-maximal activity (AC50) under setting [1] was 16.4 µM [falling, single point].

`CN1CCc2c(sc(NC(=O)c3cc(Cl)sc3Cl)c2C(N)=O)C1`: the cell number change was -8.36%. Besides, under setting [1], the AC50 is 0.58 µM [falling, partial curve].

For the compound `O=C(CCCCCCCC(=O)NNC(=O)Nc1ccccc1)NNC(=O)Nc1ccccc1`, the cell number change was -69.7%. Also, under setting [2], the AC50 is 29.1 µM [falling, single point]. For the same compound, under setting [1], the AC50 is 6.51 µM [falling, single point].

Take `C=CCNc1ccc(C(=O)O)cc1`: the cell number change is -34.5%. In addition, the half-maximal activity concentration (AC50) under setting [2] was 23.1 µM [falling, single point]. The AC50 under setting [1] is 7.31 µM [falling, single point].

Take `CO/N=C/c1c(C(=O)OC)nn(-c2ccccc2)c1Cl`: the cell number change came out at 16.6%.

Turning to `CCOC(=O)N1CCC(NC(=O)C2=CCN(S(=O)(=O)c3ccc(F)cc3)CC2)CC1`, the cell number change was -26.3%. Besides, under setting [2], the AC50 was 0.651 µM [falling, full curve, poor fit]. The AC50 under setting [1] is 0.651 µM [falling, full curve].

With `O=C(Cc1ccc(Cl)cc1)Nc1ccc(S(=O)(=O)Nc2ncccn2)cc1`, the cell number change was -30.5%. For the same compound, the AC50 under setting [2] is 7.31 µM [falling, partial curve].

On to `c1ccc2c(c1)OCc1cn[nH]c1-2`, for which the cell number change was determined as 9.81%.

As to `COc1ccc(CC(NC(C)=O)C(=O)N2CCN(C(=O)Nc3cccc(Cl)c3)CC2)cc1OC` (stereo not drawn), the cell number change was determined as 17.9%. Further, the AC50 under setting [1] was 0.00517 µM [rising, full curve, poor fit].

With `CCCCn1c(Nc2ccccc2)nc2ccccc21`, the AC50 was 2.06 µM [rising, partial curve] under setting [2] and 6.51 µM [rising, single point] under setting [1].

For `CCOC(=O)c1[nH]c(C)c(C(=O)OCc2c(C)noc2C)c1C`, the cell number change turned out to be 17.1%.

Consider `O=C(NC1CCCCCC1)C1c2ccccc2C(=O)N1CCCN1CCOCC1` (stereo not drawn), for which the cell number change came to 4.22%.

For `O=C(CN1CCN(S(=O)(=O)c2ccccc2)CC1)NC(=O)NCc1ccco1`, the cell number change was -4.09%. The concentration at half-maximal activity (AC50) under setting [1] was 0.92 µM [rising, full curve, poor fit].

In the case of `COc1cc(OC)c(C2C(C(=O)O)c3ccccc3C(=O)N2C)cc1OC` (stereo not drawn), the cell number change was 19%. Moreover, under setting [1], the AC50 is 29.1 µM [rising, single point].

In the case of `CCC(=O)Oc1cccc(C(=O)Nc2cccc(NC(=O)c3ccco3)c2)c1`, the cell number change is -13.2%. For the same compound, the concentration at half-maximal activity (AC50) under setting [2] is 2.31 µM [falling, partial curve, poor fit]. The AC50 under setting [1] was 0.1 µM [rising, full curve, poor fit].

As for `Cc1cc2ncc(-c3cccc(Cl)c3)cn2n1`, the cell number change was -36.6%. The AC50 under setting [2] was 0.291 µM [falling, full curve, poor fit]. The AC50 under setting [1] was 0.731 µM [falling, partial curve, poor fit].

Regarding `Cc1ccccc1NC(=S)N1CCN(c2ccccc2)CC1`, the cell number change came to 20.1%. In addition, the AC50 under setting [1] is 32.6 µM [rising, single point].

For `CCn1cc(CNC(=O)CCSc2nc(-c3ccco3)cc(C(F)(F)F)n2)cn1`, the cell number change was 43.5%. The AC50 under setting [2] is 7.31 µM [rising, partial curve].

As to `CC1(c2ccc(OC(F)F)cc2)NC(=O)N(CC(=O)N2CCN(C(=O)c3ccco3)CC2)C1=O` (stereo not drawn), the cell number change was -13.8%. Besides, under setting [1], the AC50 was 0.00517 µM [falling, full curve, poor fit].

Turning to `CCCN(Cc1nc(-c2ccc(Cl)cc2)no1)CC1CCCO1` (stereo not drawn), the cell number change was -7.28%. Moreover, the AC50 under setting [1] was 16.4 µM [falling, single point].

Regarding `O=C1c2cccc3c(O)ccc(c23)C(=O)N1Cc1ccccc1`, the cell number change was -99%. Under setting [2], the concentration at half-maximal activity (AC50) is 29.1 µM [falling, single point]. Under setting [1], the AC50 is 29.1 µM [falling, single point].

Turning to `Cc1nn(C)c(C)c1NC(=O)COc1ccc(Cl)cc1Br`, the cell number change was -17.2%. Also, the AC50 under setting [1] is 0.146 µM [rising, full curve, poor fit].

As for `O=C(NCCS(=O)(=O)N1CCN(c2ccccc2F)CC1)c1ccc(Br)o1`, the cell number change is -9.56%. Besides, the AC50 under setting [1] was 16.4 µM [falling, single point].

Regarding `CCCCOc1ccc(C(=O)N(C)CC(=O)Nc2ccc(C)cc2)cc1`, the cell number change worked out at 19.4%. Further, the AC50 under setting [1] was 0.58 µM [rising, single point].

`COCn1c(C(O)c2ccccc2)cc2ccccc21` (stereo not drawn): the cell number change amounted to 7.37%. The AC50 under setting [1] was 16.4 µM [rising, partial curve, poor fit].

On to `CC(C)CN(C(=O)COC(=O)/C=C/c1ccccc1)C1CCS(=O)(=O)C1` (stereo not drawn), for which the cell number change is -9.59%.

The values are drawn from PubChem BioAssay AID2685 (National Center for Advancing Translational Sciences (NCATS), 2010).
